The list shows a part of the results.
Key:
Experiment in all cases: log2 fold change, soluble protein after heating vs DMSO (PISA); higher = thermal stabilisation; K562 lysate, 10 uM; active = over 0.2 and 3.5 SD of the protein, either way, in both replicates (recomputed)
[1] = compound: CN1CC[C@H](c2c(O)cc(O)c3c(=O)cc(-c4ccccc4Cl)oc23)[C@H](O)C1 [alvocidib]
How it was run: (§1)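 Dounce homogenisation of K562 pellets in PBS pH 7.4 with 1 mM MgCl2 produced a crude extract, used at 1 mg/mL protein. Exposure to 10 μM compound lasted 30 min, and aliquots were then heated for 3 min across 48°C-58°C, pooled and brought to 0.5% NP-40 at 4°C. The supernatant after 21,000xg for 90 min was quantified by TMTpro 16plex LC-MS/MS with channel sums equalised. Duplicate values are given as log-two fold change in thermal stability relative to solvent controls.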

The chains behind the UniProt entries cited, without tags or fusion partners. Where a name states a change or a piece, a line headed by the entry shows the natural chain unless it says otherwise.
UniProt Q8TBZ6: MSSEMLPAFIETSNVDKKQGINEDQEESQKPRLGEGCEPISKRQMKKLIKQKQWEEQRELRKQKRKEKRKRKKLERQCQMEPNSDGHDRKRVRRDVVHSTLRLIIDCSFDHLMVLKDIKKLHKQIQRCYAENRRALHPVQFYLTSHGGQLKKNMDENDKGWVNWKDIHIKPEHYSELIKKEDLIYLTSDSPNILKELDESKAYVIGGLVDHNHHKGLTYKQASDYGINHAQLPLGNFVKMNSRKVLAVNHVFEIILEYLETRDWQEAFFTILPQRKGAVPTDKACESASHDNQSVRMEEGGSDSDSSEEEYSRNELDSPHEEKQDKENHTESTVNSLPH
UniProt Q9H892: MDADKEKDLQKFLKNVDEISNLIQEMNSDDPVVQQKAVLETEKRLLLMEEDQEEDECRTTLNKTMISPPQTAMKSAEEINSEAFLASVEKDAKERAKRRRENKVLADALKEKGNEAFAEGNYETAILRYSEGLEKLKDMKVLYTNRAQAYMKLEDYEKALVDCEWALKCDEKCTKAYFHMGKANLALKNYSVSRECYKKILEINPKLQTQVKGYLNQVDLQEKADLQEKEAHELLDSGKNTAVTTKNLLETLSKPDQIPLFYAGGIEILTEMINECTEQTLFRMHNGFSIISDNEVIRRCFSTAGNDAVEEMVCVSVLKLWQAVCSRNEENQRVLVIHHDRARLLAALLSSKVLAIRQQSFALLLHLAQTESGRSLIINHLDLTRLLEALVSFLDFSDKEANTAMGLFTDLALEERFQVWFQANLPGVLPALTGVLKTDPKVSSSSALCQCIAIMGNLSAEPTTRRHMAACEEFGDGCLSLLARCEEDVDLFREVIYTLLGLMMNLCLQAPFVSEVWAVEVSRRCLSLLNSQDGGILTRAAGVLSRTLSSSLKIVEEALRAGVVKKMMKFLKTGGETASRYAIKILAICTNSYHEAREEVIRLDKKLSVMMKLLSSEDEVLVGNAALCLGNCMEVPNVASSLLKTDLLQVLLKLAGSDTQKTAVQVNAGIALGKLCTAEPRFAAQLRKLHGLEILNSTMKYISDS
UniProt Q96DX7: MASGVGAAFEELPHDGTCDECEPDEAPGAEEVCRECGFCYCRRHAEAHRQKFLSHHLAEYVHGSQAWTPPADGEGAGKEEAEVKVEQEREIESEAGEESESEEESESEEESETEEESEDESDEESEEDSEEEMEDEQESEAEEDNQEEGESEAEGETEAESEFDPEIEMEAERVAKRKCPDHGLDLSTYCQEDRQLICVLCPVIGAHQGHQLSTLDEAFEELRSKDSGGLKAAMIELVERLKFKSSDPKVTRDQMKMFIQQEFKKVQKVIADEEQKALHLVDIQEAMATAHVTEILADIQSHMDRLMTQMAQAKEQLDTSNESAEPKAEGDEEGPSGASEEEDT
UniProt Q15642: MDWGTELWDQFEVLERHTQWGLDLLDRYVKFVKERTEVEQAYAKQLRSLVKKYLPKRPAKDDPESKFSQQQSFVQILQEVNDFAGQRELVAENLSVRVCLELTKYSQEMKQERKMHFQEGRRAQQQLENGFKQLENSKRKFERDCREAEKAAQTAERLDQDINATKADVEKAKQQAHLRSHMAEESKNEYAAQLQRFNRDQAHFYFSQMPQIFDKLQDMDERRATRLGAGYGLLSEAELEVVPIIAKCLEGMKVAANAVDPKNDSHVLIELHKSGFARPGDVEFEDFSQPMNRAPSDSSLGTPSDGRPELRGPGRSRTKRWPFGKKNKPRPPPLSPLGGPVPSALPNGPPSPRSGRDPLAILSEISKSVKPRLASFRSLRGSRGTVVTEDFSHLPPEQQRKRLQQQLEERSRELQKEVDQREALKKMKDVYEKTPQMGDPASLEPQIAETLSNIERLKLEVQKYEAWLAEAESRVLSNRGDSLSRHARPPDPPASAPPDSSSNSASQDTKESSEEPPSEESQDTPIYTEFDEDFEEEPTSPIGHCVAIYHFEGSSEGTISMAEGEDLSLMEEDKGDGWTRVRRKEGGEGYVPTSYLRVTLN
UniProt Q9UL33, whole entry, looked up: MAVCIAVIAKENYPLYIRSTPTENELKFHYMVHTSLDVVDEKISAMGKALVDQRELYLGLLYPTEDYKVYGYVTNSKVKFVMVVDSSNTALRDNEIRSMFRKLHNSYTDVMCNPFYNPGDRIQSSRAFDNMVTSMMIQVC
UniProt Q6PJ69: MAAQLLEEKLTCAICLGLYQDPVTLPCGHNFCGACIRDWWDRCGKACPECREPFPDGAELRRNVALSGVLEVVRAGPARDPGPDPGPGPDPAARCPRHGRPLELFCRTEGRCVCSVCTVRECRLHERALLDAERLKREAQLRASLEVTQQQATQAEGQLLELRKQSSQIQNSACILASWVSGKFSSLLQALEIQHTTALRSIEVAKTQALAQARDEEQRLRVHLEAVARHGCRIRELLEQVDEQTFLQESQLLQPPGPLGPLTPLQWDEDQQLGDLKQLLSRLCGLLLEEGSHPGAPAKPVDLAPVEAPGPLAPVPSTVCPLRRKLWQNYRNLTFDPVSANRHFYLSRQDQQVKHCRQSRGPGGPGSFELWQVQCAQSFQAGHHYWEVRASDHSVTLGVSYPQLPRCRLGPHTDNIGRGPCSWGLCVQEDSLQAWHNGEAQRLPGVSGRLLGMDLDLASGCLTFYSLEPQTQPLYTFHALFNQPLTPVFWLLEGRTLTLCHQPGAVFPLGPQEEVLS
UniProt Q9Y4A5, whole entry, looked up: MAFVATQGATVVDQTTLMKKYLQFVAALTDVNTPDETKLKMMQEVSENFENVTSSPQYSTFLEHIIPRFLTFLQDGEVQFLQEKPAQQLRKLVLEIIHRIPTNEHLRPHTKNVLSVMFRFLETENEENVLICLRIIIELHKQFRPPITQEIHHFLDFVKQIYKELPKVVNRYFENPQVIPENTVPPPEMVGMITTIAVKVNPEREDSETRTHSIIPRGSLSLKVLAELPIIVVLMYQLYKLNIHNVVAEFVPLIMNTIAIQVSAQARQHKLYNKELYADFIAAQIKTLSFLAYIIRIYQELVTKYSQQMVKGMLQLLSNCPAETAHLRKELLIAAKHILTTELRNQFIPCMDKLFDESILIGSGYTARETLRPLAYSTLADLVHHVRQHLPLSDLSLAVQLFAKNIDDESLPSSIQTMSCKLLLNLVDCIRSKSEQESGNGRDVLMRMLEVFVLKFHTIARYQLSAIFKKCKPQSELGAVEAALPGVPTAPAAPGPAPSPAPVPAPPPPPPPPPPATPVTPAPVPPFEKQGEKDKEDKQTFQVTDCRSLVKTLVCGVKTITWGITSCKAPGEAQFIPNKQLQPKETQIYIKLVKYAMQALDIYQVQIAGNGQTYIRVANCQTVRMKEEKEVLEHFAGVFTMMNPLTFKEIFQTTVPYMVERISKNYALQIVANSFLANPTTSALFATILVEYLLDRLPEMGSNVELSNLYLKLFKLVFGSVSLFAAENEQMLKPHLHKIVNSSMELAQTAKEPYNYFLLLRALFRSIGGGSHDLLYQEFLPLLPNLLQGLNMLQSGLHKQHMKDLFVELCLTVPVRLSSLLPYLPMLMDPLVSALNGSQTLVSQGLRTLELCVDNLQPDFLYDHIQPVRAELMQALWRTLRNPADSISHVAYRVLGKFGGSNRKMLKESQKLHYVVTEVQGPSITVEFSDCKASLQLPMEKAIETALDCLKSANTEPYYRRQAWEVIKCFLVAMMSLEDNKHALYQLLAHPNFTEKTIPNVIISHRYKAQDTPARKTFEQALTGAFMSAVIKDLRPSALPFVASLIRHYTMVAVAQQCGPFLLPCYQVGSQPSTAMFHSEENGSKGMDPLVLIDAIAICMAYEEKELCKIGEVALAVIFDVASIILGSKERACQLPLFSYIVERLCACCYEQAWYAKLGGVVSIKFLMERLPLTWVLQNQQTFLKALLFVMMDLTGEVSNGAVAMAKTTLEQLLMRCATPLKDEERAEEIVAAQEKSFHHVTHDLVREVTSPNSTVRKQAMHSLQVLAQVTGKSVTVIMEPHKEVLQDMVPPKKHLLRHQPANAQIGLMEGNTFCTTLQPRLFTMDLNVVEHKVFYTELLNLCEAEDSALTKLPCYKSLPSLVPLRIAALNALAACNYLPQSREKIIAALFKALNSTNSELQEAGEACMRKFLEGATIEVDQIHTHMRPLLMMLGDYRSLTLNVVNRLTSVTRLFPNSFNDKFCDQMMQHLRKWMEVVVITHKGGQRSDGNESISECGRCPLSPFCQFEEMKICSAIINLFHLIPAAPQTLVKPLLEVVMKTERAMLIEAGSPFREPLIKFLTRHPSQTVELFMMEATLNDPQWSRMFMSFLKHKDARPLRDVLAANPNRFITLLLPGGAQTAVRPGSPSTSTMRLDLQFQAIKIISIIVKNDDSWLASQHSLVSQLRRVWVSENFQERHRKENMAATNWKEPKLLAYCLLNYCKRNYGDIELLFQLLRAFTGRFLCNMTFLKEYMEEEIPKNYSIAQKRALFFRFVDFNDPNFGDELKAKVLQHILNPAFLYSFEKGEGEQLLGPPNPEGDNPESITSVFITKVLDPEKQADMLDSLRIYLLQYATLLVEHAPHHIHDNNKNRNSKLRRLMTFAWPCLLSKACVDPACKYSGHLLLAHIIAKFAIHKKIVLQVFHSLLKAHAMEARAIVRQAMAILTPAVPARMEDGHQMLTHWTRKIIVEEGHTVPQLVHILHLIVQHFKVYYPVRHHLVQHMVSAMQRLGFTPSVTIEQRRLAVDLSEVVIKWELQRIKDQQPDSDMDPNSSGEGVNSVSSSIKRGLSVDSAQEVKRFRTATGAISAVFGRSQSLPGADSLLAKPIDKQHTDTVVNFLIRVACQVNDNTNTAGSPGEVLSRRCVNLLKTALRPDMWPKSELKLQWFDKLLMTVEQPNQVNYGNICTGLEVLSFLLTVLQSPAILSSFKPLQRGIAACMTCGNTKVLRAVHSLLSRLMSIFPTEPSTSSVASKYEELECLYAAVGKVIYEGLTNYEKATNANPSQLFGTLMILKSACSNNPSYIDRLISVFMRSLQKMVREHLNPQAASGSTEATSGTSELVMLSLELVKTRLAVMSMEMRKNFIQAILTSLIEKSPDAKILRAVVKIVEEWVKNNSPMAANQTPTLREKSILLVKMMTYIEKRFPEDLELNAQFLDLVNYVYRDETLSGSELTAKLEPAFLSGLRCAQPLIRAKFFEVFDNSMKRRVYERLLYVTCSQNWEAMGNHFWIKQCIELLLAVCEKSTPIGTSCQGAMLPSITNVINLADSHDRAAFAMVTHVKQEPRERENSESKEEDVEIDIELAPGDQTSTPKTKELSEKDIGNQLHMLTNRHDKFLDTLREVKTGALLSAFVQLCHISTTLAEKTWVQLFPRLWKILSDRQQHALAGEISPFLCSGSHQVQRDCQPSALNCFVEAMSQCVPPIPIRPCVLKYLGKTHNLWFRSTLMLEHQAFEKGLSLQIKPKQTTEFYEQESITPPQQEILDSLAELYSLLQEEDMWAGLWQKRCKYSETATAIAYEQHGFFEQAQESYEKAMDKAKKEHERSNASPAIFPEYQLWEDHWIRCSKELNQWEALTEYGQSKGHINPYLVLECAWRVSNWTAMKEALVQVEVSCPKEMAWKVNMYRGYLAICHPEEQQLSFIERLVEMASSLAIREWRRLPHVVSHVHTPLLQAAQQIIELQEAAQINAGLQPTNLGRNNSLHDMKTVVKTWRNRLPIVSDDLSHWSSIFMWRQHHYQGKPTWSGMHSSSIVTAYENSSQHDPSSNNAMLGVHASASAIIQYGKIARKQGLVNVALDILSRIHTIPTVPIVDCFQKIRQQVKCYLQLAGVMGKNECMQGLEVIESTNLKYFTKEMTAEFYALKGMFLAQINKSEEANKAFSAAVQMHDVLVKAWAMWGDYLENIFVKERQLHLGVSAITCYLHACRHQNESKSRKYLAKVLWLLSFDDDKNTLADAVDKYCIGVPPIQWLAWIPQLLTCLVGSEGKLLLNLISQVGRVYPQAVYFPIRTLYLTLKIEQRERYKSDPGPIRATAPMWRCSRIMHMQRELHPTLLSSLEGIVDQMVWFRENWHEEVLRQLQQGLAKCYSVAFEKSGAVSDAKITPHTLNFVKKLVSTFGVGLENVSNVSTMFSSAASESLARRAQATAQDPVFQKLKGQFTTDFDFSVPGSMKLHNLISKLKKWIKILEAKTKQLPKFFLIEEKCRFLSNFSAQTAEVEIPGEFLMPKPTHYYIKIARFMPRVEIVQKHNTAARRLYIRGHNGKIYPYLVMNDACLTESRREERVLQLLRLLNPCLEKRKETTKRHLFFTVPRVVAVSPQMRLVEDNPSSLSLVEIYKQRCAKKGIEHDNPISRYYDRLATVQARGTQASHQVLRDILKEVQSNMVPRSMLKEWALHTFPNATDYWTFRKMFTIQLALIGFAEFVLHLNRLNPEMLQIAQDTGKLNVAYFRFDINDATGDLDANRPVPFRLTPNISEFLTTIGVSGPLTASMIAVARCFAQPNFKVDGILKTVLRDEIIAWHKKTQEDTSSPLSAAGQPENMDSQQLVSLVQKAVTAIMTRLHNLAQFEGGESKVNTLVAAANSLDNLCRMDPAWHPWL

[2] = compound: CN1CCc2c(c3ccccc3n2Cc2ccc(C(=O)NO)cc2)C1 [Tubastatin A]
How it was run: as §1

[3] = compound: CNC(=O)C1=CC=CC=C1NC2=NC(=NC=C2Cl)NC3=C(C=C(C=C3)N4CCOCC4)OC
How it was run: as §1

[4] = compound: CNC(=O)c1ccc(Nc2ncc(C(F)(F)F)c(NCc3nccnc3N(C)S(C)(=O)=O)n2)cc1 [defactinib]
How it was run: as §1

[5] = compound: CNc1nc(-c2ccc3c(N)n[nH]c3c2)cc(N2C[C@@H](C(=O)NC3CCCCC3)CC[C@H]2C)n1
How it was run: as §1

[6] = compound: COC(=O)N[C@@H](C)CNc1nccc(-c2cn(C(C)C)nc2-c2cc(Cl)cc(NS(C)(=O)=O)c2F)n1 [encorafenib]
How it was run: as §1

[7] = compound: COC(=O)[C@H](CCSC)NC(=O)C1=C(C=C(C=C1)NC[C@H](CS)N)C2=CC=CC=C2
How it was run: as §1

[8] = compound: COc1cc(Nc2ncc3c(n2)-c2ccc(Cl)cc2C(c2c(F)cccc2OC)=NC3)ccc1C(=O)O [alisertib]
How it was run: as §1

[9] = compound: COc1cc2nc(-c3cc(F)ccc3O)nc(N[C@@H]3CNC[C@H]3C(C)(C)O)c2cc1OC
How it was run: as §1

[10] = compound: COc1cc2ncnc(Nc3ccc(F)c(Cl)c3)c2cc1OCCCN1CCOCC1 [gefitinib]
How it was run: as §1

[11] = compound: CS(=O)(=O)CCNCc1ccc(-c2ccc3ncnc(Nc4ccc(OCc5cccc(F)c5)c(Cl)c4)c3c2)o1 [lapatinib]
How it was run: as §1

[12] = compound: CS(=O)(=O)N1CCN(Cc2cc3nc(-c4cccc5[nH]ncc45)nc(N4CCOCC4)c3s2)CC1 [pictilisib]
How it was run: as §1

[13] = compound: C[C@@H](Oc1cc(-c2cnn(C3CCNCC3)c2)cnc1N)c1c(Cl)ccc(F)c1Cl [crizotinib]
How it was run: as §1

[14] = compound: C[C@H](C1=CC=C(C=C1)C(=O)NC2=C3C=CNC3=NC=C2)N
How it was run: as §1

[15] = compound: C[C@H](Nc1ncnc2nc[nH]c12)c1cc2cccc(Cl)c2c(=O)n1-c1ccccc1 [duvelisib]
How it was run: as §1

[16] = compound: Cc1cc(Nc2cc(CN3CCOCC3)c3nc(C)c(Cc4ccc(Cl)cc4F)n3n2)n[nH]1 [gandotinib]
How it was run: as §1

[17] = compound: Cc1cc(Nc2cc(N3CCN(C)CC3)nc(Sc3ccc(NC(=O)C4CC4)cc3)n2)n[nH]1 [tozasertib]
How it was run: as §1

[18] = compound: Cc1ccc(-n2nc(C(C)(C)C)cc2NC(=O)Nc2ccc(OCCN3CCOCC3)c3ccccc23)cc1 [doramapimod]
How it was run: as §1

[19] = compound: Cc1ccc(NC(=O)c2ccc(CN3CC[C@H](N(C)C)C3)c(C(F)(F)F)c2)cc1Nc1nccc(-c2cncnc2)n1 [bafetinib]
How it was run: as §1

[20] = compound: Cc1cccc(CC(=O)N2CCc3c2ccc(-c2cn(C)c4ncnc(N)c24)c3F)n1
How it was run: as §1

Target | log2 fold change [1] | log2 fold change [2] | log2 fold change [3] | log2 fold change [4] | log2 fold change [5] | log2 fold change [6] | log2 fold change [7] | log2 fold change [8] | log2 fold change [9] | log2 fold change [10] | log2 fold change [11] | log2 fold change [12] | log2 fold change [13] | log2 fold change [14] | log2 fold change [15] | log2 fold change [16] | log2 fold change [17] | log2 fold change [18] | log2 fold change [19] | log2 fold change [20]
TRMT10A (UniProt Q8TBZ6) | inactive: 0.003 | inactive: -0.008 | inactive: 0.095 | inactive: -0.01 | inactive: 0.09 | inactive: -0.031 | inactive: -0.012 | inactive: 0.015 | inactive: -0.021 | inactive: -0.004 | inactive: 0.042 | inactive: 0.083 | inactive: 0.031 | inactive: -0.041 | inactive: 0.001 | inactive: 0.02 | inactive: -0.047 | inactive: 0.001 | inactive: 0.012 | inactive: 0.059
TTC12 isoform 2 (UniProt Q9H892) | inactive: -0.024 | inactive: -0.279 | inactive: -0.06 | inactive: -0.05 | inactive: -0.041 | inactive: -0.052 | inactive: -0.03 | inactive: -0.145 | inactive: -0.043 | inactive: 0.137 | inactive: -0.053 | inactive: -0.153 | inactive: -0.068 | inactive: -0.416 | inactive: 0.143 | inactive: 0.031 | inactive: 0.092 | inactive: 0.022 | inactive: -0.14 | active: 0.445
TSEN2 (UniProt Q8NCE0) | inactive: -0.071 | inactive: -0.02 | inactive: 0.026 | inactive: -0.033 | inactive: 0.028 | inactive: -0.014 | inactive: 0.077 | inactive: 0.004 | inactive: 0.028 | inactive: -0.009 | inactive: 0.006 | inactive: 0.003 | inactive: -0.085 | inactive: -0.076 | inactive: 0.017 | inactive: 0.032 | inactive: 0.039 | inactive: 0.008 | inactive: -0.024 | inactive: 0.079
TRIM44 (UniProt Q96DX7) | inactive: 0 | inactive: -0.013 | inactive: 0.057 | inactive: -0.045 | inactive: 0.04 | inactive: -0.047 | inactive: -0.034 | inactive: 0.041 | inactive: -0.121 | inactive: 0.088 | active: -0.242 | inactive: -0.11 | inactive: -0.018 | inactive: 0.04 | inactive: 0.007 | inactive: 0.01 | inactive: -0.04 | inactive: 0.013 | inactive: 0.031 | inactive: -0.075
TRAP1 (UniProt Q12931) | inactive: 0.018 | inactive: 0.006 | inactive: -0.029 | inactive: -0.016 | inactive: -0.079 | inactive: -0.018 | inactive: -0.005 | inactive: 0.01 | inactive: -0.003 | inactive: -0.008 | inactive: -0.024 | inactive: -0.009 | inactive: 0.041 | inactive: 0.006 | inactive: -0.009 | inactive: -0.028 | inactive: 0.044 | inactive: -0.035 | inactive: -0.014 | inactive: -0.022
TTI1 (UniProt O43156) | inactive: 0 | inactive: -0.163 | inactive: 0.015 | inactive: 0.022 | inactive: -0.035 | inactive: 0.022 | inactive: 0.026 | inactive: -0.013 | inactive: -0.011 | inactive: -0.016 | inactive: -0.011 | inactive: -0.044 | inactive: -0.11 | inactive: -0.075 | inactive: -0.005 | inactive: -0.113 | inactive: 0.028 | inactive: 0.045 | inactive: -0.016 | inactive: 0.056
TRIP10 (UniProt Q15642) | inactive: -0.012 | inactive: -0.012 | inactive: -0.016 | inactive: -0.01 | inactive: 0.013 | inactive: -0.003 | inactive: 0.056 | inactive: 0.025 | inactive: -0.003 | inactive: -0.027 | inactive: -0.004 | inactive: 0.042 | inactive: -0.083 | inactive: -0.069 | inactive: 0.005 | inactive: 0.098 | inactive: 0.003 | inactive: 0.054 | inactive: 0.023 | inactive: 0.179
TRPC4AP (UniProt Q8TEL6) | inactive: -0.024 | inactive: 0.04 | inactive: 0.019 | inactive: -0.007 | inactive: -0.069 | inactive: 0.006 | inactive: 0.099 | inactive: 0.021 | inactive: -0.032 | inactive: 0.005 | inactive: -0.005 | inactive: 0.03 | inactive: -0.037 | inactive: -0.007 | inactive: 0.065 | inactive: 0.032 | inactive: -0.003 | inactive: 0.033 | inactive: -0.069 | inactive: 0.017
TRAPPC1 (UniProt Q9Y5R8) | inactive: -0.009 | inactive: 0 | inactive: -0.011 | inactive: 0.062 | inactive: 0 | inactive: 0.047 | inactive: -0.012 | inactive: -0.046 | inactive: 0.022 | inactive: -0.005 | inactive: 0.03 | inactive: -0.009 | inactive: -0.054 | inactive: 0.01 | inactive: -0.041 | inactive: 0.057 | inactive: -0.054 | inactive: 0.102 | inactive: 0.007 | inactive: 0.019
TRAPPC2L (UniProt Q9UL33) | inactive: 0.005 | inactive: 0.031 | inactive: 0.013 | inactive: 0.024 | inactive: -0.01 | inactive: 0.068 | inactive: -0.084 | inactive: -0.148 | inactive: -0.015 | inactive: -0.01 | inactive: 0.027 | inactive: -0.012 | inactive: -0.025 | inactive: -0.023 | inactive: -0.045 | inactive: 0.003 | inactive: 0.063 | inactive: -0.024 | inactive: -0.012 | inactive: 0.075
TTC4 (UniProt O95801) | inactive: -0.012 | inactive: -0.183 | inactive: 0.078 | inactive: 0.004 | inactive: 0.003 | inactive: 0.021 | inactive: -0.005 | inactive: 0.008 | inactive: -0.017 | inactive: -0.003 | inactive: 0.006 | inactive: 0.025 | inactive: -0.073 | inactive: -0.059 | inactive: -0.001 | inactive: 0.035 | inactive: 0.009 | inactive: 0.014 | inactive: -0.001 | inactive: 0.026
TRIM65 (UniProt Q6PJ69) | inactive: -0.11 | inactive: 0.025 | inactive: -0.044 | inactive: 0.024 | inactive: -0.014 | inactive: -0.002 | inactive: 0.089 | inactive: -0.02 | inactive: 0.023 | inactive: 0.003 | inactive: 0.028 | inactive: -0.035 | inactive: -0.046 | inactive: -0.06 | inactive: 0.072 | inactive: -0.102 | inactive: 0.042 | inactive: -0.02 | inactive: 0.034 | inactive: 0.088
TRIM5 (UniProt Q9C035) | inactive: 0.021 | inactive: -0.134 | inactive: 0.086 | inactive: -0.04 | inactive: -0.031 | inactive: 0.032 | inactive: 0.032 | inactive: 0.121 | inactive: -0.105 | inactive: 0.014 | inactive: -0.018 | inactive: 0.005 | inactive: -0.037 | inactive: -0.028 | inactive: 0.004 | inactive: -0.055 | inactive: 0.155 | inactive: 0.008 | inactive: -0.013 | inactive: 0.104
TRRAP (UniProt Q9Y4A5) | inactive: 0.003 | inactive: -0.048 | inactive: -0.006 | inactive: 0.018 | inactive: -0.024 | inactive: 0.055 | inactive: 0.009 | inactive: -0.016 | inactive: -0.004 | inactive: -0.031 | inactive: -0.034 | inactive: -0.057 | inactive: -0.035 | inactive: -0.023 | inactive: -0.011 | inactive: -0.027 | inactive: 0.018 | inactive: 0.036 | inactive: -0.056 | inactive: 0.018
TSC22D2 (UniProt O75157) | inactive: -0.011 | inactive: 0.037 | inactive: 0.006 | inactive: 0.029 | inactive: 0.073 | inactive: 0.076 | inactive: 0.043 | inactive: -0.019 | inactive: -0.027 | inactive: -0.006 | inactive: -0.015 | inactive: -0.021 | inactive: -0.013 | inactive: 0.02 | inactive: 0.048 | inactive: 0.029 | inactive: 0.009 | inactive: 0.031 | inactive: -0.122 | inactive: 0.011
TTC1 (UniProt Q99614) | inactive: 0.025 | inactive: 0.053 | inactive: 0.017 | inactive: -0.012 | inactive: -0.01 | inactive: 0.009 | inactive: -0.105 | inactive: -0.01 | inactive: -0.019 | inactive: -0.011 | inactive: 0.051 | inactive: 0.007 | inactive: 0.088 | inactive: -0.033 | inactive: 0.014 | inactive: 0.072 | inactive: -0.011 | inactive: -0.004 | inactive: 0.028 | inactive: -0.007

Exported as comma-separated lines: entries from further up.
Target,log2 fold change [1],log2 fold change [2],log2 fold change [3],log2 fold change [4],log2 fold change [5],log2 fold change [6],log2 fold change [7],log2 fold change [8],log2 fold change [9],log2 fold change [10],log2 fold change [11],log2 fold change [12],log2 fold change [13],log2 fold change [14],log2 fold change [15],log2 fold change [16],log2 fold change [17],log2 fold change [18],log2 fold change [19],log2 fold change [20]
TRIM65 (UniProt Q6PJ69),inactive: -0.11,inactive: 0.025,inactive: -0.044,inactive: 0.024,inactive: -0.014,inactive: -0.002,inactive: 0.089,inactive: -0.02,inactive: 0.023,inactive: 0.003,inactive: 0.028,inactive: -0.035,inactive: -0.046,inactive: -0.06,inactive: 0.072,inactive: -0.102,inactive: 0.042,inactive: -0.02,inactive: 0.034,inactive: 0.088
TRIM5 (UniProt Q9C035),inactive: 0.021,inactive: -0.134,inactive: 0.086,inactive: -0.04,inactive: -0.031,inactive: 0.032,inactive: 0.032,inactive: 0.121,inactive: -0.105,inactive: 0.014,inactive: -0.018,inactive: 0.005,inactive: -0.037,inactive: -0.028,inactive: 0.004,inactive: -0.055,inactive: 0.155,inactive: 0.008,inactive: -0.013,inactive: 0.104

From the supplement of paper PMC10849652
